Source: PubChem BioAssay AID1259308 (NCATS, 2017)
Shown is an unselected part of about 59,000 reagents. About 1,510 of them (2.6%) were called active. 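Calls use total luciferase alone and ignore viability, so some active siRNAs may act by altering cell number.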 Unmarked entries are inactive. Reagents against one gene are numbered here.

- Test: 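Genes whose loss raises luciferase production in HEK293 cells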 (primary screen)
- System: human HEK293 embryonic kidney cells stably expressing firefly luciferase (HEK-CMV-Luc2-Hygro)
- Reagent: single siRNA against human genes, 0.8 pmol siRNA per well
- Time to read-out: 72 h
- Measured: 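Luciferase light (ONE-Glo) measured on one replicate plate set and viability (CellTiter-Glo) on the other, scaled to a negative control siRNA, with robust z-scores and luciferase per cell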
- Reading the numbers: total luciferase, z-score and total luciferase, % of control: higher = more reporter protein produced; luciferase per cell, z-score: higher = more reporter output per viable cell; viable cells, % of control: higher = more viable cells
- Hit rule: 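An siRNA counts as active if its total luciferase robust z-score exceeds 3; genes with two or more such siRNAs out of three were retested with fresh siRNAs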
- Calls: active = raised luciferase; inactive = no rise

Target gene | siRNA no. | total luciferase, z-score | total luciferase, % of control | luciferase per cell, z-score | viable cells, % of control
CTRB2 | 1 | 0.991 | 102 | 1.28 | 81
CTRB2 | 2 | -0.469 | 72.6 | 0.0435 | 80.2
CTRB2 | 3 | -0.427 | 73.4 | 0.55 | 70.9
TBC1D22A | 1 | 0.313 | 88.1 | 0.365 | 89.4
TBC1D22A | 2 | -0.304 | 75.8 | -0.605 | 99.4
TBC1D22A | 3 | 1.48 | 111 | 2.2 | 69.7
CCDC181 | 1 | 1.21 | 106 | 1.88 | 72.2
CCDC181 | 2 | 1.19 | 105 | 0.598 | 101
CCDC181 | 3 | 1.17 | 105 | 1.56 | 78
LILRA4 | 1 | -0.233 | 77.3 | -0.53 | 99.2
LILRA4 | 2 | 1.24 | 106 | 0.799 | 96.4
LILRA4 | 3 | 3.49 (active) | 151 | 1.88 | 103
DIAPH3 | 1 | -0.774 | 66.5 | -1.52 | 111
DIAPH3 | 2 | -0.247 | 77 | 1.12 | 64
DIAPH3 | 3 | -0.846 | 65.1 | -1.24 | 101
SLC2A9 | 1 | 2.56 | 133 | 2.28 | 81.5
SLC2A9 | 2 | 0.26 | 87.1 | 0.13 | 94
SLC2A9 | 3 | -1.01 | 61.7 | -1.21 | 94.8
LRRC74A | 1 | 1.25 | 107 | 1.5 | 80.4
LRRC74A | 2 | 0.0397 | 82.7 | -0.0244 | 93
LRRC74A | 3 | 0.581 | 93.4 | -0.139 | 108

Part of the list above, limited to “viable cells, % of control”:
LILRA4 #2	96.4
LILRA4 #3	103 (active)
DIAPH3 #1	111
DIAPH3 #2	64
DIAPH3 #3	101
SLC2A9 #1	81.5

The results go on.
Target gene | siRNA no. | total luciferase, z-score | total luciferase, % of control | luciferase per cell, z-score | viable cells, % of control
ZNF57 | 1 | 0.432 | 90.5 | 0.66 | 85
ZNF57 | 2 | -0.711 | 67.7 | -0.82 | 94
ZNF57 | 3 | -0.225 | 77.4 | 0.0659 | 85
CPSF4 | 1 | -0.914 | 63.7 | -0.795 | 87.8
CPSF4 | 2 | 0.289 | 87.6 | 0.983 | 75.6
CPSF4 | 3 | -0.0963 | 80 | 0.698 | 74.4
JHY | 1 | -0.373 | 74.5 | -0.189 | 87.5
JHY | 2 | 0.244 | 86.7 | 0.893 | 76.6
JHY | 3 | 0.755 | 96.9 | 1.14 | 80.2
DLL4 | 1 | 0.595 | 93.7 | 1 | 80.4
DLL4 | 2 | -0.304 | 75.8 | 0.339 | 77.5
DLL4 | 3 | 0.904 | 99.9 | 1.07 | 84.3
ZMAT4 | 1 | -0.586 | 70.2 | -0.276 | 84.4
ZMAT4 | 2 | 0.864 | 99.1 | 0.349 | 101
ZMAT4 | 3 | -0.821 | 65.6 | -1.17 | 99.6
ZRANB2 | 1 | -0.39 | 74.1 | -0.852 | 104
ZRANB2 | 2 | -0.635 | 69.3 | -0.823 | 96.1
ZRANB2 | 3 | -0.803 | 65.9 | -0.403 | 81.9
